No constants are given. Whether binding was seen depends on the method and setting. Where a sequence is shown, tags or fusion partners need not be part of it.
Biological target: TOMM20-EGFP
Experiment: both split fragments co-expressed with the antigen in HeLa cells, fluorescence microscopy before 488 nm light

B1: N-term VHHGFP-nMagH-mCherry (protein, not shown: large carriers)
chain: MDQVQLVESGGALVQPGGSLRLSCAASGFPVNRYSMRWYRQAPGKEREWVAGMSSAGDRSSYEDSGGGGSGGGGSHTLYAPGGYDIMGYLDQIGNRPNPQVELGPVDTSCALILCDLKQKDTPIVYASEAFLYMTGYSNAEVLGRNCRFLQSPDGMVKPKSTRKYVDSNTINTIRKAIDRNAEVQVEVVNFKKNGQRFVNFLTIIPVRDETGEYRYSMGFQCETE
**Q.** For B1, which binding is on record?
**A.** no binding

From US20190092839A1
